Measurements from the supplement of paper PMC12823440, “Inhibitors supercharge kinase turnover through native proteolytic circuits” (Nature, 2025).
This is one part of the list. Hit calls seldom repeat between salt and free forms of one compound.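 Kinases were expressed as nanoluciferase fusions in K562 cells and luminescence was read every 4 h between 2 and 18 h as percent of control, DMSO set to 100% and a positive control to 0%. A time point counts as decreased when the signal drops significantly (2 sigma). The hit call is the authors' own, does not follow from the count of time points alone, and its rule is not shown.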

By UniProt entry, the sequences of proteins in these tests, tags left out. Where a name states a change or a piece, a line headed by the entry shows the natural chain unless it says otherwise.
UniProt P50613: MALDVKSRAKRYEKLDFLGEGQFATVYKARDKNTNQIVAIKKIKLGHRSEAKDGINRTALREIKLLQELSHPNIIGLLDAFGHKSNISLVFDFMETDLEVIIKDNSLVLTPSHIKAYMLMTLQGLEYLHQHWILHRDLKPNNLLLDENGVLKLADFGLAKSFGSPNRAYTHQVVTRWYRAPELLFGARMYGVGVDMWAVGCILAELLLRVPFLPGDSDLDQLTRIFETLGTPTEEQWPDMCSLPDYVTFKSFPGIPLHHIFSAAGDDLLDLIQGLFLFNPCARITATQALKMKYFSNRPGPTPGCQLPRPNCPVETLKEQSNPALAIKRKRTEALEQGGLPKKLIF
UniProt P50750, whole entry: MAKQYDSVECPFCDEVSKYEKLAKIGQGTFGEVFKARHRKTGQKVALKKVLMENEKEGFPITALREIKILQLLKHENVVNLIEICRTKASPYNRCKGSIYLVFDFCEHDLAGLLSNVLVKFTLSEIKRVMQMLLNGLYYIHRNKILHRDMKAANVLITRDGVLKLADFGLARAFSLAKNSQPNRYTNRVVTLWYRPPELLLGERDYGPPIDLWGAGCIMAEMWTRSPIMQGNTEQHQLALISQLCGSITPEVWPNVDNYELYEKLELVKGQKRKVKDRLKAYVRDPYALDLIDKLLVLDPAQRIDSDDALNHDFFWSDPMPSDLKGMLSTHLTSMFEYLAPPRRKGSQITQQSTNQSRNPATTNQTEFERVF
UniProt O96017, whole entry: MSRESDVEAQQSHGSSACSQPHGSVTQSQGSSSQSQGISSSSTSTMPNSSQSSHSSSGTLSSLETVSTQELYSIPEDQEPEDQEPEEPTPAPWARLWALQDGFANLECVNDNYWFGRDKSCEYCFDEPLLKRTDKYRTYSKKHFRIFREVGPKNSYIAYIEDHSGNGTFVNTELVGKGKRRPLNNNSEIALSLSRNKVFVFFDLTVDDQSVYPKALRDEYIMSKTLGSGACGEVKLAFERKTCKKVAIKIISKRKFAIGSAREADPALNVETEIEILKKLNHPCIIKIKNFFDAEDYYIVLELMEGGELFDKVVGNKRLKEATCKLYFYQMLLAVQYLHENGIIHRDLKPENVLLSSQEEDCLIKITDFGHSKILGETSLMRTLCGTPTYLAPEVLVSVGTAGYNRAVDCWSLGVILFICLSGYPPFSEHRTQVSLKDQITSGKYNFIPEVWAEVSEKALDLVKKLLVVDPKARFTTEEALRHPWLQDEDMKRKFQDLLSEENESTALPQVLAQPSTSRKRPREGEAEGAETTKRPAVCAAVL
UniProt P07333, whole entry: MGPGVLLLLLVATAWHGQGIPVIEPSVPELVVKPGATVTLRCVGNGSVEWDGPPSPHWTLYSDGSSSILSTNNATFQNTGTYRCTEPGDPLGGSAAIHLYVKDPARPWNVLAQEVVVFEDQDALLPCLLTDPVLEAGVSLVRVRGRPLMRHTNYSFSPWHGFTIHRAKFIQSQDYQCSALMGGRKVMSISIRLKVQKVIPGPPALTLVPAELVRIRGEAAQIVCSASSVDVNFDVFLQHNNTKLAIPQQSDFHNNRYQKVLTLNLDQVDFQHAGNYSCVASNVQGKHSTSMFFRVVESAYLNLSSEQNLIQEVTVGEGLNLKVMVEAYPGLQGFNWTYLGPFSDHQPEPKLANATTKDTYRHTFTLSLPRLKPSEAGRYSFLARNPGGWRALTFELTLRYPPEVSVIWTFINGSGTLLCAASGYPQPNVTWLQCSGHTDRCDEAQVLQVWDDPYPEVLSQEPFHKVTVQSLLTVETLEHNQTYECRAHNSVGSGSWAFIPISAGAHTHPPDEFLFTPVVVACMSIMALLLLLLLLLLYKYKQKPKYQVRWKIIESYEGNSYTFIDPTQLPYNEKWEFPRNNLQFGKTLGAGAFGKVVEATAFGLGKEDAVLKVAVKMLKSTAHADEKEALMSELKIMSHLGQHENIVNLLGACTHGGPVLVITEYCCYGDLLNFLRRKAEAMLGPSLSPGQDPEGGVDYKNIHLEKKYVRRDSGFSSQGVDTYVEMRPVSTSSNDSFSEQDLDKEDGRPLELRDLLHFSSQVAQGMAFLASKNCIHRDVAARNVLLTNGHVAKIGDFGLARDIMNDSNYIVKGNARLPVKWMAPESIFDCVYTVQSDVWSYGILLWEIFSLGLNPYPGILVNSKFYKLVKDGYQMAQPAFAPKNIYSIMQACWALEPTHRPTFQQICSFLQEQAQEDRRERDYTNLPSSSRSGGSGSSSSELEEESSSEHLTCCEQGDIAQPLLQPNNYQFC
UniProt P41240: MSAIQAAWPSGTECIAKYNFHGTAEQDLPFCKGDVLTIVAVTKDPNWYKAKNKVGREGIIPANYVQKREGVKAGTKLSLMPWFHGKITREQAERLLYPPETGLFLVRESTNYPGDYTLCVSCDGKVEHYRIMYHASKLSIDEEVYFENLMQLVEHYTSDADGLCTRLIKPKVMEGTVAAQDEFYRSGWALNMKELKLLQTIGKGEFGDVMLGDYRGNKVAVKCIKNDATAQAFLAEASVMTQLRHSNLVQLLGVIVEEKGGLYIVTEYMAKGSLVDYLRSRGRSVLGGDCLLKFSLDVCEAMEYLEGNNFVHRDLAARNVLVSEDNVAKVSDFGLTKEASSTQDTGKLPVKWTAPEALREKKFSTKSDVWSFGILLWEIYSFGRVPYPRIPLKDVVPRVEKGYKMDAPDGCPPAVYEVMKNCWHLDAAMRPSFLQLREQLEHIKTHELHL
UniProt P48729: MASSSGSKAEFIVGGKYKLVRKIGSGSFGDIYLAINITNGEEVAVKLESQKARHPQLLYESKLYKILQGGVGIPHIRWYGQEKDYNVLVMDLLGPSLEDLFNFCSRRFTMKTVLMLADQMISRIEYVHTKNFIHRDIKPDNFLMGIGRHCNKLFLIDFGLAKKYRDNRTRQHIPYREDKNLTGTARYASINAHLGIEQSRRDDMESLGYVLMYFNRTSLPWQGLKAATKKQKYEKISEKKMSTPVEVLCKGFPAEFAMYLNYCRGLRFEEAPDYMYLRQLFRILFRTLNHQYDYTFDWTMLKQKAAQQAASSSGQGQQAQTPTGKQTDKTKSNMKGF
UniProt P48730: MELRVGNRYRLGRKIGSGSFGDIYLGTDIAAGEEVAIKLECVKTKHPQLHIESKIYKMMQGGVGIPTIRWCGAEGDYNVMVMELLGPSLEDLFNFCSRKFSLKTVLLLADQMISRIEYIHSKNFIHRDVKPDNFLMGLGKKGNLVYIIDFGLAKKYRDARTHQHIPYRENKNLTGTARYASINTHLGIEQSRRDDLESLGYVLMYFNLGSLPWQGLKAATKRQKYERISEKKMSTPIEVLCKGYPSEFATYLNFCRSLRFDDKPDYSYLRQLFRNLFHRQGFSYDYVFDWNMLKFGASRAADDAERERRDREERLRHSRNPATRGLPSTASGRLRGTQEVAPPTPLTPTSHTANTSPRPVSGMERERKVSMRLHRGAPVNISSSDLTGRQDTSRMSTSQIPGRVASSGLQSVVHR
UniProt Q08345: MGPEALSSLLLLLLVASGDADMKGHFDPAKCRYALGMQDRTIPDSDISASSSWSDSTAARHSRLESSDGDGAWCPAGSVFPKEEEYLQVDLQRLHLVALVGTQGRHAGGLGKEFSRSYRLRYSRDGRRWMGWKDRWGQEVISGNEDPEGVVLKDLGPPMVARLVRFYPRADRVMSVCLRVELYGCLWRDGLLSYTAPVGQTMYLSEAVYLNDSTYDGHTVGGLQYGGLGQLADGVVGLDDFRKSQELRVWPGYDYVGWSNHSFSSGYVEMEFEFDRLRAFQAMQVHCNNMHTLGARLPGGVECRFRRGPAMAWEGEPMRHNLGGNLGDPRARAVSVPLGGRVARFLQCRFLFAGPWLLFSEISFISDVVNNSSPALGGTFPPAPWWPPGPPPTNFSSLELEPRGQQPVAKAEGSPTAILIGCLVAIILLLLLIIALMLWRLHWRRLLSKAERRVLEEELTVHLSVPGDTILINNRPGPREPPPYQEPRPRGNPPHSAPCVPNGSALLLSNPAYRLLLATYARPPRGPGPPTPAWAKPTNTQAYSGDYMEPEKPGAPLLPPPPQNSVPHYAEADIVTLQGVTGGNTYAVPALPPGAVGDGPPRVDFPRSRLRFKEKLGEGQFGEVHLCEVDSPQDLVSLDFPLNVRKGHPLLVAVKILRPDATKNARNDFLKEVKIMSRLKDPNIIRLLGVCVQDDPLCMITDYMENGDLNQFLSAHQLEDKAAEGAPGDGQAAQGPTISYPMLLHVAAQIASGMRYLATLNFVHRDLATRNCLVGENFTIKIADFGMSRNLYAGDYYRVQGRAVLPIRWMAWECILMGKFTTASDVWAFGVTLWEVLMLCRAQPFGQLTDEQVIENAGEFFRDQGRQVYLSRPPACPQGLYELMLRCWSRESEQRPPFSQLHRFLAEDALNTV
UniProt Q9Y463, whole entry, looked up: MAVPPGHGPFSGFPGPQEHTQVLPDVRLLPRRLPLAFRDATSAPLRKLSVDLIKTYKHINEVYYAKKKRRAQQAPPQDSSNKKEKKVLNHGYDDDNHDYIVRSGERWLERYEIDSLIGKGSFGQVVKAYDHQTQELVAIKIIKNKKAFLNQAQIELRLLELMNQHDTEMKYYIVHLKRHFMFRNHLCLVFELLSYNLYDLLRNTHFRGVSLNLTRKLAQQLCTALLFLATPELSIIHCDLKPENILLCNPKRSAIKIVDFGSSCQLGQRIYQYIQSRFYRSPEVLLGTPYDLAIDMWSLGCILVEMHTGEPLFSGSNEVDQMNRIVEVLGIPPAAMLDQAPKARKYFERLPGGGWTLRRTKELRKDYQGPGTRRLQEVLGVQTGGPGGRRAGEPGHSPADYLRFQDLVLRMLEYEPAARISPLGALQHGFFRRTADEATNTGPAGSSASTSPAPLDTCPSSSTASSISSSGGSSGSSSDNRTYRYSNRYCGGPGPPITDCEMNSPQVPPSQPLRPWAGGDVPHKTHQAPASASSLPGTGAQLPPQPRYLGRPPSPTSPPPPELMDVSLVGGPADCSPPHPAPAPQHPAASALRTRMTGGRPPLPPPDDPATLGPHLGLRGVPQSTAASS
UniProt Q92630: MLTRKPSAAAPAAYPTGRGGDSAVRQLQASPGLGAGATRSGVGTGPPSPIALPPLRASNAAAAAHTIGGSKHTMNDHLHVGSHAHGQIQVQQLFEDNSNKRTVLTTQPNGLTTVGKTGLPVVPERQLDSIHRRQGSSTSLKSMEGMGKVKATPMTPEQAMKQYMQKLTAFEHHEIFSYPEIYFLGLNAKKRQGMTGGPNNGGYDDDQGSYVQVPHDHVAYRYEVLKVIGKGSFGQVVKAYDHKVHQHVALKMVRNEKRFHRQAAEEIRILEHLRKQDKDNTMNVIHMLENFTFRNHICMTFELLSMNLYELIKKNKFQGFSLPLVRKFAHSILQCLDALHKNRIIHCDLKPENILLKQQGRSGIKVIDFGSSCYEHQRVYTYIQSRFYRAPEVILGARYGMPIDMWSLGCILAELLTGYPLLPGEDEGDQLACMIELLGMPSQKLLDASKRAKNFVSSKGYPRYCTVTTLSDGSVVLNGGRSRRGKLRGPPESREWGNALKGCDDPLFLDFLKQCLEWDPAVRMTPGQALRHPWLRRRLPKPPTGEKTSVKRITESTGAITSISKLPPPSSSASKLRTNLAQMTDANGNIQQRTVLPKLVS

How the values were obtained:
Assay in all cases: kinase-Nluc reporter destabilization hit call (1 = scored as downregulated) (binary); higher = compound decreases kinase abundance
Details in all cases: K562; 2-18 h
[1] = molecular target: CDK7 (UniProt P50613)
[2] = molecular target: CDK9 (UniProt P50750)
[3] = molecular target: CHEK2 (UniProt O96017)
[4] = molecular target: CSF1R (UniProt P07333)
[5] = molecular target: CSK (UniProt P41240)
[6] = molecular target: CSNK1A1 (UniProt P48729)
[7] = molecular target: CSNK1D (UniProt P48730)
[8] = molecular target: DDR1 (UniProt Q08345)
[9] = molecular target: DYRK1B (UniProt Q9Y463)
[10] = molecular target: DYRK2 (UniProt Q92630)

Measured: kinase-Nluc reporter destabilization hit call

C[C@H]1CNC(=O)c2cnn3ccc(nc23)N[C@H](C)c2cc(F)ccc2O1 [Repotrectinib] (2.5 µM)
inactive: [1] 0 | [2] 0 | [3] 0 | [4] 0 | [5] 0 | [6] 0 | [7] 0 | [8] 0 | [9] 0 | [10] 0

O=C(Nc1cc(Cl)cc(Cl)c1)Nc1cc(Cl)cc(Cl)c1 (10 µM)
inactive: [1] 0 | [2] 0 | [3] 0 | [4] 0 | [5] 0 | [6] 0 | [7] 0 | [8] 0 | [9] 0 | [10] 0

CS(=O)(=O)N1CCc2c(-c3cnc(N)nc3)nc(N3CCOCC3)nc21 (10 µM)
inactive: [1] 0 | [2] 0 | [3] 0 | [4] 0 | [5] 0 | [6] 0 | [7] 0 | [8] 0 | [9] 0 | [10] 0

C[C@@H](N)COc1ccc(-c2cnc3ccc(N[C@H](C)c4cccc(F)c4)nn23)cc1 [Taletrectinib] (2.5 µM)
inactive: [1] 0 | [2] 0 | [3] 0 | [4] 0 | [5] 0 | [6] 0 | [7] 0 | [8] 0 | [9] 0 | [10] 0

Cn1cc(-c2cn3nccc3c(-c3cnn([C@]4(CC#N)C[C@@H](C#N)C4)c3)n2)cn1 (10 µM)
inactive: [1] 0 | [2] 0 | [3] 0 | [4] 0 | [5] 0 | [6] 0 | [7] 0 | [8] 0 | [9] 0 | [10] 0

NC(=O)c1cccc2c(N[C@H](CN3CCC3)c3ccc(Cl)c(C(F)(F)F)c3)ncnc12 (10 µM)
inactive: [1] 0 | [2] 0 | [3] 0 | [4] 0 | [5] 0 | [6] 0 | [7] 0 | [8] 0 | [9] 0 | [10] 0

CCc1ccc(NC(=O)Nc2ccccc2)cc1 (10 µM)
inactive: [1] 0 | [2] 0 | [3] 0 | [4] 0 | [5] 0 | [6] 0 | [7] 0 | [8] 0 | [9] 0 | [10] 0

CN1CCC(c2ccccc2CC(C)(C)Nc2nc(N3CCOCC3)nc(-n3c(S(C)(=O)=O)nc4ccccc43)n2)CC1 (10 µM)
inactive: [1] 0 | [2] 0 | [3] 0 | [4] 0 | [5] 0 | [6] 0 | [7] 0 | [8] 0 | [9] 0 | [10] 0

COc1cc(/C=C/c2ccc(NC(=O)/C=C/c3cc(OC)c(OC)c(OC)c3)cc2)cc(OC)c1 (2.5 µM)
inactive: [1] 0 | [2] 0 | [3] 0 | [4] 0 | [5] 0 | [6] 0 | [7] 0 | [8] 0 | [9] 0 | [10] 0

Cc1ccc(-c2csc(Cn3nc(CC4OCCCO4)c4ccccc4c3=O)n2)cc1 (10 µM)
inactive: [1] 0 | [2] 0 | [3] 0 | [4] 0 | [5] 0 | [6] 0 | [7] 0 | [8] 0 | [9] 0 | [10] 0

C=CC(=O)N1CCN(c2nc(OC[C@@H]3CCCN3C)nc3c2CCN(c2cccc4cccc(C)c24)C3)C[C@@H]1CC#N (2.5 µM)
inactive: [1] 0 | [2] 0 | [3] 0 | [4] 0 | [5] 0 | [6] 0 | [7] 0 | [8] 0 | [9] 0 | [10] 0

Cc1cc(/C=C2\CC/C(=C\c3cc(C)c(O)c(C)c3)C2=O)cc(C)c1O [Pentagamavunon-1] (2.5 µM)
inactive: [1] 0 | [2] 0 | [3] 0 | [4] 0 | [5] 0 | [6] 0 | [7] 0 | [8] 0 | [9] 0 | [10] 0

Cc1ccc(CNC(=O)N2CCC[C@]3(CCN(Cc4ccc(Cl)c(Cl)c4)C3)C2)cc1 (10 µM)
inactive: [1] 0 | [2] 0 | [3] 0 | [4] 0 | [5] 0 | [6] 0 | [7] 0 | [8] 0 | [9] 0 | [10] 0

Cc1ncc(F)c(Nc2n[nH]c3c2CN(C(=O)N2C[C@@H](C)N(CC4CCOCC4)C[C@@H]2C)C3(C)C)n1 (10 µM)
inactive: [1] 0 | [2] 0 | [3] 0 | [4] 0 | [5] 0 | [6] 0 | [7] 0 | [8] 0 | [9] 0 | [10] 0

Nothing new here: two of the compounds above.
Cc1cc(/C=C2\CC/C(=C\c3cc(C)c(O)c(C)c3)C2=O)cc(C)c1O [Pentagamavunon-1] (2.5 µM)
inactive: [1] 0 | [2] 0 | [3] 0 | [4] 0 | [5] 0 | [6] 0 | [7] 0 | [8] 0 | [9] 0 | [10] 0

Cc1ccc(CNC(=O)N2CCC[C@]3(CCN(Cc4ccc(Cl)c(Cl)c4)C3)C2)cc1 (10 µM)
inactive: [1] 0 | [2] 0 | [3] 0 | [4] 0 | [5] 0 | [6] 0 | [7] 0 | [8] 0 | [9] 0 | [10] 0

Further records follow:

Cc1cccc(-c2[nH]c(C(C)(C)C)nc2-c2ccc3c(c2)OCO3)n1 (2.5 µM)
inactive: [1] 0 | [2] 0 | [3] 0 | [4] 0 | [5] 0 | [6] 0 | [7] 0 | [8] 0 | [9] 0 | [10] 0

COc1ccc(C(=O)c2cn(C(C)C)c3ncnc(N)c23)cc1NC(=O)Nc1ccc(Cl)cc1Cl (10 µM)
inactive: [1] 0 | [2] 0 | [3] 0 | [4] 0 | [5] 0 | [6] 0 | [7] 0 | [8] 0 | [9] 0 | [10] 0

O=C(CCc1ccc2n1[B-](F)(F)[N+]1=C(c3ccc[nH]3)C=CC1=C2)ON1C(=O)CCC1=O [Py-BODIPY-NHS ester] (2.5 µM)
inactive: [1] 0 | [2] 0 | [3] 0 | [4] 0 | [5] 0 | [6] 0 | [7] 0 | [8] 0 | [9] 0 | [10] 0

COc1cccc(Nc2ncnn3ccc(CN4CC[C@@H](N)[C@H](O)C4)c23)c1 (2.5 µM)
inactive: [1] 0 | [2] 0 | [3] 0 | [4] 0 | [5] 0 | [6] 0 | [7] 0 | [8] 0 | [9] 0 | [10] 0

CCc1nc(C(N)=O)c(Nc2ccc(N3CCC(N4CCN(C)CC4)CC3)c(OC)c2)nc1NC1CCC(OC)CC1 (stereo not given) [EML4-ALK kinase inhibitor 1] (2.5 µM)
inactive: [1] 0 | [2] 0 | [3] 0 | [4] 0 | [5] 0 | [6] 0 | [7] 0 | [8] 0 | [9] 0 | [10] 0

CNC(=O)c1c(C)oc2cc(Oc3ncnc4cc(OC)c(OC)cc34)ccc12 [Fruquintinib] (10 µM)
inactive: [1] 0 | [2] 0 | [3] 0 | [4] 0 | [5] 0 | [6] 0 | [7] 0 | [8] 0 | [9] 0 | [10] 0

Cc1cc([N+](=O)[O-])c(NS(=O)(=O)c2cccc(C(=O)O)c2)cc1-c1cccnc1 [Alofanib] (10 µM)
inactive: [1] 0 | [2] 0 | [3] 0 | [4] 0 | [5] 0 | [6] 0 | [7] 0 | [8] 0 | [9] 0 | [10] 0

CC(C)=CCC/C(C)=C/CC/C(C)=C/CSc1ccccc1C(=O)O [Salirasib] (10 µM)
inactive: [1] 0 | [2] 0 | [3] 0 | [4] 0 | [5] 0 | [6] 0 | [7] 0 | [8] 0 | [9] 0 | [10] 0

Nc1nc2c(ncn2COCCO)c(=O)[nH]1 [Acyclovir] (10 µM)
inactive: [1] 0 | [2] 0 | [3] 0 | [4] 0 | [5] 0 | [6] 0 | [7] 0 | [8] 0 | [9] 0 | [10] 0

O=C(Nc1nccs1)C(c1cc(F)ccc1O)N1Cc2ccccc2C1=O (stereo not given) (10 µM)
inactive: [1] 0 | [2] 0 | [3] 0 | [4] 0 | [5] 0 | [6] 0 | [7] 0 | [8] 0 | [9] 0 | [10] 0

CCOC(=O)C1=C[C@]2(CC)CCCN3CCc4c(n1c1ccccc41)[C@@H]32 [Vinpocetine] (10 µM)
inactive: [1] 0 | [2] 0 | [3] 0 | [4] 0 | [5] 0 | [6] 0 | [7] 0 | [8] 0 | [9] 0 | [10] 0

Cc1ccc(Nc2c(C(N)=O)cnc3cc(-c4ccncc4)ccc23)cc1C [cFMS Receptor Inhibitor II] (10 µM)
inactive: [1] 0 | [2] 0 | [3] 0 | [4] 0 | [5] 0 | [6] 0 | [7] 0 | [8] 0 | [9] 0 | [10] 0

Cc1nc(Nc2ncc(C(=O)Nc3c(C)cccc3Cl)s2)cc(N2CCN(C(=O)CCCCCCC(=O)N[C@H](C(=O)N3C[C@H](O)C[C@H]3C(=O)NCc3ccc(-c4scnc4C)cc3)C(C)(C)C)CC2)n1 (2.5 µM)
inactive: [1] 0 | [2] 0 | [3] 0 | [4] 0 | [5] 0 | [6] 0 | [7] 0 | [8] 0 | [9] 0 | [10] 0
